# Measurements as given in paper PMC4297295, “Structural Conservation Despite Huge Sequence Diversity Allows EPCR Binding by the PfEMP1 Family Implicated in Severe Childhood Malaria” (Cell Host & Microbe, 2015).
# Biological target: T1, endothelial protein C receptor, extracellular domain (human) (UniProt Q9UNN8)
# T1 sequence: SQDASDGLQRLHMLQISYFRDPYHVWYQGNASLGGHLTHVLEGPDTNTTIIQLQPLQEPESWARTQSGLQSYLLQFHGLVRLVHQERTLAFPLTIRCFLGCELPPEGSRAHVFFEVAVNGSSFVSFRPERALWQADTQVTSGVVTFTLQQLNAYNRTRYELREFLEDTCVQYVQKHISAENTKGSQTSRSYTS
# Assay: ELISA; both purified
substance,measurement,value
IT4var20 CIDRα1.1 domain (Plasmodium falciparum) (domain or fragment),binding,binds

# Results are given in words; binding and its absence hold for the method and conditions named. A result given as binding can be weak or reduced; the word gives no strength.
